Data published in paper PMC11841255.
No constants are given. Whether binding was seen depends on the method and setting. In cells and extracts the contact can be indirect. A result given as binding can be weak or reduced; the word gives no strength. Sequences can lack the tags named with a protein.

Target: truncated MYC: N-terminus
Test: co-IP; exogenous, tagged plasmids co-transfected in 293T cells; lysate incubated with primary antibody at 4 °C for 12 h, Protein A/G magnetic beads 1 h at 4 °C, five washes, WB; in one panel GFP-CDCA3 co-transfected with HA-MYC and Flag-TRIM28 (interaction enhanced)

B1: GFP-CDCA3 (protein, UniProt Q99618 1-268)
chain: MGSAKSVPVTPARPPPHNKHLARVADPRSPSAGILRTPIQVESSPQPGLPAGEQLEGLKHAQDSDPRSPTLGIARTPMKTSSGDPPSPLVKQLSEVFETEDSKSNLPPEPVLPPEAPLSSELDLPLGTQLSVEEQMPPWNQTEFPSKQVFSKEEARQPTETPVASQSSDKPSRDPETPRSSGSMRNRWKPNSSKVLGRSPLTILQDDNSPGTLTLRQGKRPSPLSENVSELKEGAILGTGRLLKTGGRAWEQGQDHDKENQHFPLVES
binding: binds
